# Out of some 330,000 compounds screened, about 7,700 (2.3%) were called active. This list was built around the results that the source calls inconclusive (neither active nor inactive); the mix of calls is not that of the screen. The call rests on the fitted dose curve; in most records, active means well fitted inhibition curve with a large enough effect; inconclusive means small, poorly fitted or top-dose-only effect, or effect the other way; inactive means flat fitted curve, though single readings scatter. Potencies of inconclusive entries are doubtful fits and often do not repeat.
# Experiment: qHTS screen for small molecules that inhibit ELG1-dependent DNA repair in human embryonic kidney (HEK293T) cells expressing luciferase-tagged ELG1; further: nearly all actives have a fitted effect of over 55% in size
# Conditions: HEK293T ELG1-luciferase reporter, luminescence, 16 h, DNA damage induced by 5-fluorouridine; activity change, negative = inhibition: at 46.1 µM (top of the series)
# In short: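 In this reporter screen, reduction of luminescence relative to DMSO vehicle indicated activity. Compounds and 5-fluorouridine were added together to 2,000 cells per well, incubated for 16 hr at 37 °C, then developed with ONE-Glo.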
# On the % scale 0 is the no-effect control and ±100 the full control effect; potency means the concentration at half of the fitted maximal effect.
Compound,Potency,"activity change, negative = inhibition"
O=C(NC1CCCCCCC1)C1CCN(c2nc3ccccc3o2)CC1,active: 16.4 µM,–
N#CCCN(C(=O)COC(=O)CNC(=O)c1cccs1)c1ccc(F)cc1,"inconclusive: 4.11 µM [activator, full curve, poor fit]",–
O=S(=O)(c1ccccc1Br)N(Cc1ccccc1)CC(O)COCc1ccccc1 (centres undefined),"inconclusive: 23.1 µM [inhibitor, single point]",–
NC1=NC(=O)/C(=C\C=C\c2ccccc2)S1,"inconclusive: 16.4 µM [activator, partial curve]",–
CC(C)n1nc(C(=O)Nc2ccc(-n3cnnn3)cc2)c2ccccc2c1=O,"inconclusive: 16.4 µM [inhibitor, single point]",–
Cc1ccn2cc(-c3cccc(NC(=O)C(C)C)c3)nc2c1,"inconclusive: 7.3 µM [activator, partial curve]",–
COc1ccc(Cn2nnnc2C(c2cc3ccc(OC)cc3[nH]c2=O)N2CCCCCC2)cc1 (centres undefined),"inconclusive: 23.1 µM [inhibitor, partial curve]",–
O=C(COC(=O)c1ccc(O)cc1)NCCc1c[nH]c2ccccc12,–,inactive: 0%
COc1cc2oc(=O)cc(-c3ccc(-c4ccc(CO)cc4)cc3)c2c(OC)c1OC,active: 5.8 µM,–
Cn1nccc1C(=O)NC1CCCc2c1cnn2-c1cc(F)cc(F)c1 (centres undefined),"inconclusive: 3.66 µM [inhibitor, partial curve, poor fit]",–
CCC(=O)c1ccc(OCCSc2ncccn2)cc1,"inconclusive: 2.59 µM [activator, partial curve]",–
O=[N+]([O-])c1cc(/C=N/O)ccc1SCc1ccccc1Cl,–,inactive: 18.8%
O=C(Nc1cc(C(F)(F)F)ccc1N1CCOCC1)c1cn2ccccc2n1,–,inactive: -12.9%
O=S1(=O)CCOC[C@H](CC2CCCCC2)N1Cc1ccccc1Br,"inconclusive: 14.6 µM [activator, single point]",–
CCCc1nc(C)cc(N2CCN(c3ccccc3)CC2)n1,–,inactive: -14.3%
O=C(CCCN1C(=O)/C(=C/c2cccs2)SC1=S)Nc1cccnc1,–,inactive: 8.38%
COc1cccc(C(=O)Nc2c3c(nc4c2CCC4)CCCC3)c1,–,inactive: -0.804%
COc1cc2cncc(Cc3ccc(Cl)cc3)c2cc1OC,"inconclusive: 5.8 µM [inhibitor, full curve, poor fit]",–
Cc1cc(NC(=O)CSc2nc3sc(C)c(C)c3c(=O)n2C2CCCC2)no1,"inconclusive: 0.231 µM [inhibitor, full curve, poor fit]",–
CCOc1ccc(NC(=O)CN2C(=O)S/C(=C/c3cccn3C)C2=O)cc1,"inconclusive: 23.1 µM [activator, single point]",–
O=C(Cc1ccc(-n2c(=O)[nH]c3ccccc3c2=O)cc1)N1CCN(c2cccc(Cl)c2)CC1,"inconclusive: 11.2 µM [inhibitor, partial curve, poor fit]",–
CCOc1ccccc1Oc1cn[nH]c1-c1ccc(OCC(=O)NN)cc1O,"inconclusive: 11.6 µM [inhibitor, partial curve, poor fit]",–

Compound,Potency,"activity change, negative = inhibition"
COc1ccccc1N1CCN(c2cc(N3CCCC3)nc(C)n2)CC1,"inconclusive: 29.1 µM [inhibitor, single point]",–
Cc1ccccc1OCCOC(=O)c1c(-c2ccccc2)noc1C,"inconclusive: 7.3 µM [inhibitor, full curve]",–
C=CCn1c(N2CCN(c3ccc(OC)cc3)CC2)nc2c1c(=O)n(C)c(=O)n2C,active: 16.4 µM,–
Cc1noc(C)c1S(=O)(=O)N(C)C[C@H]1Oc2c(NC(=O)Nc3ccccc3)cccc2C(=O)N([C@H](C)CO)C[C@@H]1C,–,inactive: 11.6%
Cc1nn(-c2ccc([N+](=O)[O-])cc2)c2c1C(c1cccc(Br)c1)N1C(=N2)C(=O)Nc2ccccc21 (centres undefined),"inconclusive: 4.11 µM [inhibitor, single point]",–
O=C(Nc1cccc(Cl)c1N1CCCC1)c1cc2ccccc2o1,–,inconclusive: 46.3% [activator]
CCOc1cc(N2CCOCC2)c(OCC)cc1NC(=O)c1cc(S(=O)(=O)N2CCOCC2)ccc1Cl,"inconclusive: 16.4 µM [inhibitor, partial curve]",–
COCCCNc1nc2c(c(=O)n(C)c(=O)n2C)n1Cc1cccc(OC)c1,active: 14.6 µM,–
Cc1ccc(S(=O)(=O)N2CCC(N3CCC(C)CC3)CC2)cc1,–,inactive: -12.2%
Cc1cccc(Cn2ncc(Cl)c(Cl)c2=O)c1,"inconclusive: 18.4 µM [inhibitor, single point]",–
Nc1ccc(NC(=O)c2ccco2)c(Cl)c1,"inconclusive: 20.6 µM [activator, single point]",–
CCCC(=O)N1CCN(c2nc3ccccc3s2)CC1,"inconclusive: 2.06 µM [activator, full curve]",–
Cc1ccc(NC(=O)c2ccco2)c(NC(=O)COc2ccccc2)c1,–,inactive: -4.68%
O=C(Nc1ccc(NC(=O)c2ccc3c(c2)OCCO3)cc1)c1ccccc1,–,inactive: 21.6%
Cc1cc(C)c(-c2csc(NC(=O)/C=C/c3cccs3)n2)c(C)c1,"inconclusive: 6.51 µM [inhibitor, single point]",–
CC(C)c1nc2cc(C(=O)N(C)C3CCOCC3)ccc2o1,"inconclusive: 25.9 µM [activator, partial curve]",–
Cc1ccc(N2C(=O)C3N=NN(CC(=O)N4N=C(c5cccc6ccccc56)CC4c4ccccc4)C3C2=O)cc1 (centres undefined),"inconclusive: 9.2 µM [inhibitor, partial curve, poor fit]",–
Cn1c(Cn2nnc3ccccc32)nnc1SCC(=O)N1c2ccccc2CCc2ccccc21,"inconclusive: 32.6 µM [inhibitor, partial curve, poor fit]",–
Cc1ccc(S(=O)(=O)N(C)CCCC(=O)Nc2cccc3ccccc23)cc1,"inconclusive: 29.1 µM [inhibitor, single point]",–
COc1ccccc1N1CCN(C(=O)C2CCN(S(=O)(=O)c3ccccc3)CC2)CC1,–,inactive: -25.4%
CCN(C=NC1=NN(c2cccc(C(F)(F)F)c2)CC1)CC,"inconclusive: 20.6 µM [activator, partial curve, poor fit]",–
CCc1ccc(-c2nc(CSCC(=O)N3CCN(c4ccccn4)CC3)c(C)o2)cc1,"inconclusive: 35.5 µM [inhibitor, single point]",–

# In the list so far, 3 contain two or more sulfur atoms.
Compound,Potency,"activity change, negative = inhibition"
O=C(CCCN1C(=O)/C(=C/c2cccs2)SC1=S)Nc1cccnc1,–,inactive: 8.38%
Cc1cc(NC(=O)CSc2nc3sc(C)c(C)c3c(=O)n2C2CCCC2)no1,"inconclusive: 0.231 µM [inhibitor, full curve, poor fit]",–
Cc1cc(C)c(-c2csc(NC(=O)/C=C/c3cccs3)n2)c(C)c1,"inconclusive: 6.51 µM [inhibitor, single point]",–

# — PubChem BioAssay AID504467 (National Center for Advancing Translational Sciences (NCATS), 2011)
